PubChem BioAssay AID1259405, NCATS | 2018

- Screen: 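Mouse-designed siRNAs used to find CHO productivity engineering targets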 (primary screen)
- Cells: Chinese hamster CHO-K1 ovary cells with stable secreted eGFP expression
- Reagent: single siRNA against mouse genes, 0.8 pmol siRNA per well (2 µl of 400 nM stock)
- Time to read-out: 3 days
- Measurement: 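Percent of the per-plate non-targeting control median for intracellular GFP per well by laser scanning cytometry and for cell viability by ATP luminescence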
- Direction: GFP, % of control: higher = more GFP per well, higher productivity; viability (ATP), % of control: higher = more viable cells (more ATP)
- Hit rule: 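Called active when intracellular GFP, relative to negative control, is at or above 120%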
In all, the deposit lists about 50,000 reagents; shown is a random part of them. In the full data, about 4,000 (8%) were called active. 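Mouse siRNA library applied to hamster cells; one well for each siRNA.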 Unmarked entries are inactive. The numbers tell different reagents against one gene apart.

gene,reagent no.,"GFP, % of control","viability (ATP), % of control"
4930590J08Rik (RIKEN cDNA 4930590J08 gene),1,75.7,79.7
4930590J08Rik (RIKEN cDNA 4930590J08 gene),2,66.8,55
4930590J08Rik (RIKEN cDNA 4930590J08 gene),3,118,127
Mageb3 (MAGE family member B3),1,74.2,50.4
Mageb3 (MAGE family member B3),2,45.2,64
Mageb3 (MAGE family member B3),3,75.7,71.4
Nrbp1 (nuclear receptor binding protein 1),1,71.4,51.6
Or5as1 (olfactory receptor family 5 subfamily AS member 1),1,77.6,80.1
Or5as1 (olfactory receptor family 5 subfamily AS member 1),2,85,77.1
Or5as1 (olfactory receptor family 5 subfamily AS member 1),3,43.5,17.7
Cd209c (CD209c antigen),1,98.1,68.4
Cd209c (CD209c antigen),2,26.9,50.2
Cd209c (CD209c antigen),3,34.6,24.8
"Ugt3a2 (UDP glycosyltransferases 3 family, polypeptide A2)",1,117,65.4
"Ugt3a2 (UDP glycosyltransferases 3 family, polypeptide A2)",2,71.4,64.2
"Ugt3a2 (UDP glycosyltransferases 3 family, polypeptide A2)",3,260 (active),43.4
Sema5b,1,106,68.2
Sema5b,2,64.2,63.7
Sema5b,3,60.8,67.4
Mrpl42 (mitochondrial ribosomal protein L42),1,63.4,74.1
Mrpl42 (mitochondrial ribosomal protein L42),2,28,13.6
Mrpl42 (mitochondrial ribosomal protein L42),3,65,78.6
Naalad2 (N-acetylated alpha-linked acidic dipeptidase 2),1,89.7,97.6
Naalad2 (N-acetylated alpha-linked acidic dipeptidase 2),2,120,130
Naalad2 (N-acetylated alpha-linked acidic dipeptidase 2),3,49.2,68.8
Tcstv3 (2 cell stage variable group member 3),1,105,121
Tcstv3 (2 cell stage variable group member 3),2,84,93.4
Tcstv3 (2 cell stage variable group member 3),3,189 (active),110
Cdc23 (CDC23 cell division cycle 23),1,56.4,74.3
Cdc23 (CDC23 cell division cycle 23),2,57.6,85.2
Cdc23 (CDC23 cell division cycle 23),3,61.4,114
"Pip4k2a (phosphatidylinositol-5-phosphate 4-kinase, type II, alpha)",1,59.9,81.9
Foxo1 (forkhead box O1),1,75.5,90
Foxo1 (forkhead box O1),2,90.8,94
Tesk1 (testis specific protein kinase 1),1,104,77.7
Tesk1 (testis specific protein kinase 1),2,72.6,74.9
Tesk1 (testis specific protein kinase 1),3,145 (active),61.7
Tyro3 (TYRO3 protein tyrosine kinase 3),1,83.6,78.4
Tyro3 (TYRO3 protein tyrosine kinase 3),2,76.8,77.2
Tyro3 (TYRO3 protein tyrosine kinase 3),3,72.6,76.2
Ifitm1 (interferon induced transmembrane protein 1),1,60,66.6
Ifitm1 (interferon induced transmembrane protein 1),2,61.6,78.3
Ifitm1 (interferon induced transmembrane protein 1),3,64.7,28.8
"Zfy1 (zinc finger protein 1, Y-linked)",1,37.5,47.4
"Zfy1 (zinc finger protein 1, Y-linked)",2,76.6,93.4
"Zfy1 (zinc finger protein 1, Y-linked)",3,99.4,90.9
"Fam114a2 (family with sequence similarity 114, member A2)",1,73.5,65.2
"Fam114a2 (family with sequence similarity 114, member A2)",2,122 (active),88.9
"Fam114a2 (family with sequence similarity 114, member A2)",3,72.9,72.2
Rom1 (rod outer segment membrane protein 1),1,113,99.7
Rom1 (rod outer segment membrane protein 1),2,67.4,74.5
Rom1 (rod outer segment membrane protein 1),3,87,68.1
Cenpc1 (centromere protein C1),1,96.7,106
Cenpc1 (centromere protein C1),2,69,69
Aplnr (apelin receptor),1,64.5,71.3
Aplnr (apelin receptor),2,36.3,56
Aplnr (apelin receptor),3,69.1,69.1
Htra1 (HtrA serine peptidase 1),1,63.2,64.1
Htra1 (HtrA serine peptidase 1),2,115,64.5
Htra1 (HtrA serine peptidase 1),3,67.6,67.4
Spop (speckle-type BTB/POZ protein),1,125 (active),131
Spop (speckle-type BTB/POZ protein),2,50,65.9
Spop (speckle-type BTB/POZ protein),3,99.9,87.8
1700018B24Rik (RIKEN cDNA 1700018B24 gene),1,81.4,93
1700018B24Rik (RIKEN cDNA 1700018B24 gene),2,73.2,72.1
1700018B24Rik (RIKEN cDNA 1700018B24 gene),3,94.2,96.6
Zfp821 (zinc finger protein 821),1,65.6,57.3
Zfp821 (zinc finger protein 821),2,85.9,45.5
Zfp821 (zinc finger protein 821),3,89.8,91.3
"Cox6b1 (cytochrome c oxidase, subunit 6B1)",1,102,64.7
"Cox6b1 (cytochrome c oxidase, subunit 6B1)",2,86.3,48.8
"Cox6b1 (cytochrome c oxidase, subunit 6B1)",3,64.8,60.8
"Lzts2 (leucine zipper, putative tumor suppressor 2)",1,40.6,76.3
"Lzts2 (leucine zipper, putative tumor suppressor 2)",2,108,77.1
"Lzts2 (leucine zipper, putative tumor suppressor 2)",3,70.9,45
"Yipf1 (Yip1 domain family, member 1)",1,61.5,63.5
"Yipf1 (Yip1 domain family, member 1)",2,113,75.7
"Yipf1 (Yip1 domain family, member 1)",3,181 (active),139
Tcf19 (transcription factor 19),1,100,67.3
Tcf19 (transcription factor 19),2,77,97.2
Tcf19 (transcription factor 19),3,83.6,79.7
Icosl (icos ligand),1,67.6,81.4
Icosl (icos ligand),2,80.6,80.4
Icosl (icos ligand),3,63.9,95.2
Greb1 (gene regulated by estrogen in breast cancer protein),1,96,85.8
Greb1 (gene regulated by estrogen in breast cancer protein),2,130 (active),113
Greb1 (gene regulated by estrogen in breast cancer protein),3,95.1,93
Kank3 (KN motif and ankyrin repeat domains 3),1,59,69.4
Kank3 (KN motif and ankyrin repeat domains 3),2,68.4,52.1
Kank3 (KN motif and ankyrin repeat domains 3),3,73.5,51.9
H2ac8 (H2A clustered histone 8),1,111,88
H2ac8 (H2A clustered histone 8),2,96.1,96.2
H2ac8 (H2A clustered histone 8),3,62.8,72.3
"Pccb (propionyl Coenzyme A carboxylase, beta polypeptide)",1,85.4,57.6
"Pccb (propionyl Coenzyme A carboxylase, beta polypeptide)",2,90.2,62.5
"Pccb (propionyl Coenzyme A carboxylase, beta polypeptide)",3,126 (active),103
Or4n5 (olfactory receptor family 4 subfamily N member 5),1,86.9,73.3
Or4n5 (olfactory receptor family 4 subfamily N member 5),2,92.5,77.7
Or4n5 (olfactory receptor family 4 subfamily N member 5),3,67.9,78.2
"Cdk5r2 (cyclin dependent kinase 5, regulatory subunit 2)",1,65,65.9
"Cdk5r2 (cyclin dependent kinase 5, regulatory subunit 2)",2,65.6,101
Slx4 (SLX4 structure-specific endonuclease subunit),1,53.4,43.3
Slx4 (SLX4 structure-specific endonuclease subunit),2,67.6,71.6
Slx4 (SLX4 structure-specific endonuclease subunit),3,166 (active),147
Vmn1r26 (vomeronasal 1 receptor 26),1,63.5,62.8
Vmn1r26 (vomeronasal 1 receptor 26),2,99.7,92.8
Vmn1r26 (vomeronasal 1 receptor 26),3,120,100

Entries listed so far whose gene name starts with S or s:
gene,reagent no.,"GFP, % of control","viability (ATP), % of control"
Sema5b,1,106,68.2
Sema5b,2,64.2,63.7
Sema5b,3,60.8,67.4
Spop (speckle-type BTB/POZ protein),1,125 (active),131
Spop (speckle-type BTB/POZ protein),2,50,65.9
Spop (speckle-type BTB/POZ protein),3,99.9,87.8
Slx4 (SLX4 structure-specific endonuclease subunit),1,53.4,43.3
Slx4 (SLX4 structure-specific endonuclease subunit),2,67.6,71.6
Slx4 (SLX4 structure-specific endonuclease subunit),3,166 (active),147
